This assay deals with Salmonella enterica serovar Typhimurium SL1344. The assay can be described thus: bacterial growth OD600 after 18 h with compound and polymyxin B; higher = more bacterial growth (less inhibition). The note with it: 50 µM, Mueller-Hinton broth.

The record followed here is the supplement of paper PMC12889115.

The list shows a part of the results. These are raw signals, not scaled to a control.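 Primary screen: polymyxin B was added at a level permeabilizing Salmonella outer membranes while sparing inner membranes. DMSO wells, both with and without polymyxin B, established maximum growth. Plate-to-plate variation meant each plate was ranked on its own, and the lowest-OD600 compounds were selected as hits.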

`O=C(NCC1COCCO1)C1(N2CCCCC2)Cc2ccccc2C1` (stereo not given): for the setting “polymyxin B 0.75 µg/mL”, the “bacterial growth OD600” value turned out to be 0.725. Take `O=C(NCc1ccon1)c1coc(COc2cccc(F)c2)n1`: under “polymyxin B 1 µg/mL”, the “bacterial growth OD600” value turned out to be 1.09. Regarding `Cc1cc(F)ccc1NC(=O)CCC1CCCN(Cc2cccc3c2OCO3)C1` (stereo not given), the “bacterial growth OD600” value (polymyxin B 1 µg/mL) turned out to be 0.839.

For the compound `O=C(NC1CCCN(CC2CCCCC2)C1)c1cccs1` (stereo not given), the “bacterial growth OD600” value (polymyxin B 1 µg/mL) amounted to 0.916. On the same count and under the same terms, the result for `COc1cc(CN2CCN(Cc3cn(C)nc3C)CC2CCO)cc(OC)c1` (stereo not given) reads 0.909.

`CCc1csc(CNC(=O)c2ccc(N3CCSCC3)nc2)n1`: the “bacterial growth OD600” value (polymyxin B 0.75 µg/mL) was 0.811. As to `COc1ccc(CCN2CCC(CN(C)C(=O)c3ccc(F)cc3F)CC2)cc1`, the “bacterial growth OD600” value (polymyxin B 1 µg/mL) was 1.05. With `COc1cccc(CCC2CCCN(C(C)=O)C2)c1` (stereo not given), the “bacterial growth OD600” value (polymyxin B 0.75 µg/mL) was determined as 0.854. On to `O=C1CCC(CCNCc2cc3c(cc2Cl)OCO3)N1Cc1cccc(F)c1` (stereo not given), for which the “bacterial growth OD600” value (polymyxin B 0.75 µg/mL) was 0.797.

For the compound `CN(C)S(=O)(=O)NC1CC(C)(C)Cc2nc(C(C)(C)C)ncc21` (stereo not given), the “bacterial growth OD600” value (polymyxin B 0.75 µg/mL) was determined as 0.843. On to `COCCN1C(=O)CC(CC(=O)N(C)Cc2n[nH]c3c2CCCCC3)(c2ccccc2F)C1=O` (stereo not given), for which the “bacterial growth OD600” value (polymyxin B 0.75 µg/mL) came to 0.801. In the case of `O=C(NCC1CCCCO1)c1coc(COc2cccc(C(F)(F)F)c2)n1` (stereo not given), under “polymyxin B 1 µg/mL”, the “bacterial growth OD600” value stood at 0.932. Regarding `Cc1nnc(-c2cccc(NC(=O)C3CCN(CCc4ccccc4)CC3)c2)s1`, for the setting “polymyxin B 1 µg/mL”, the “bacterial growth OD600” value is 0.999.

Regarding `COCCN1C(=O)CC(CC(=O)N2CCCC(COc3ccccc3C)C2)(c2ccccc2F)C1=O` (stereo not given), the “bacterial growth OD600” value (polymyxin B 0.75 µg/mL) is 0.001. Turning to `CCC(O)C1CCN(C(=O)CC2(c3ccc(-c4ccccc4)cc3)CC(=O)N(C)C2=O)CC1` (stereo not given), the “bacterial growth OD600” value (polymyxin B 0.75 µg/mL) was 0.699. With `COc1cc(-c2n[nH]cc2CN2CCC(C(O)c3cccs3)CC2)cc(OC)c1OC` (stereo not given), the “bacterial growth OD600” value (polymyxin B 1 µg/mL) is 0.869. Consider `COc1ccc(-c2noc(CN3CCC(O)(c4cccc(C(F)(F)F)c4)CC3)n2)cc1`, for which the “bacterial growth OD600” value (polymyxin B 1 µg/mL) was determined as 0.007. For the compound `CSc1nc(C(=O)N2CCC(C3CCN(CC(C)C)CC3)C2)cs1` (stereo not given), the “bacterial growth OD600” value (polymyxin B 0.75 µg/mL) was 0.963. For `CC#CCN1C(=O)NC(CCc2ccccc2)(C2CCN(Cc3cccc(OCCO)c3)CC2)C1=O` (stereo not given), the “bacterial growth OD600” value (polymyxin B 0.75 µg/mL) stood at 0.978. With `Cc1c(C(=O)NCC2OCCc3ccccc32)cnn1-c1ncc2c(n1)-c1ccccc1CCC2` (stereo not given), under “polymyxin B 0.75 µg/mL”, the “bacterial growth OD600” value was found to be 0.004. As to `COc1ccc(CC(=O)N2CCC(N3CCC(C(=O)NC4CC4)CC3)CC2)cc1`, the “bacterial growth OD600” value (polymyxin B 1 µg/mL) turned out to be 0.884.

As for `COc1ccc(CC2(CCC(=O)N3CCCC(C(=O)CC(C)C)C3)CCC(=O)N2)c2ccccc12` (stereo not given), the “bacterial growth OD600” value (polymyxin B 0.75 µg/mL) was determined as 0.268. Turning to `COc1ccc(OC2CCN(C(=O)Cn3cc(NC(=O)CCc4ccccc4OC)cn3)CC2)cc1`, the “bacterial growth OD600” value (polymyxin B 0.75 µg/mL) came to 0.781. Take `CCOc1ccc2nc(N3CCCC(C(=O)NCCc4nc(C)c5c(n4)CCCC5)C3)nc(C)c2c1` (stereo not given): the “bacterial growth OD600” value (polymyxin B 0.75 µg/mL) amounted to 0.639. In the case of `COCCN(CC1CCCN(C2Cc3ccccc3C2)C1)C(=O)c1cc(C)nn1C` (stereo not given), the “bacterial growth OD600” value (polymyxin B 0.75 µg/mL) amounted to 0.87. With `CCc1ccc(CN2CCCC(CO)(CCCc3ccccc3)C2)o1` (stereo not given), the “bacterial growth OD600” value (polymyxin B 0.75 µg/mL) turned out to be 0.773. In the case of `COC(=O)c1ccc(CN2CCOc3ccc(C(O)CCc4ccccc4)cc3C2)cc1` (stereo not given), where the note is “polymyxin B 0.75 µg/mL”, the “bacterial growth OD600” value turned out to be 0.

With `CSCCC(=O)NC1CCCN(CCCc2ccccc2)C1` (stereo not given), where the note is “polymyxin B 1 µg/mL”, the “bacterial growth OD600” value came out at 1.2. In the case of `CCOc1ccc2nc(N3CCCC3C(=O)NCc3c(C)nn(CC)c3C)nc(C)c2c1` (stereo not given), the “bacterial growth OD600” value (polymyxin B 0.75 µg/mL) was found to be 1.01. Regarding `COc1cccc(NC(=O)CCC2CCN(C(=O)c3cc(C)oc3C)CC2)c1`, the “bacterial growth OD600” value (polymyxin B 1 µg/mL) came to 0.937.
